Test results reported in patent US8912186B2, “Allosteric protein kinase modulators” (Universitaet des Saarlandes, priority 2008, dated 2014).
Some of these results come from one statement about several compounds together.

Molecular target: T1, PDK1 50-359[Tyr288Gly; Gln192Ala] (Homo sapiens, UniProt O15530, Q292A/Y288G)
T1 construct: PDK1 50-359[Tyr288Gly; Gln192Ala] was incubated in the presence or absence of PIFtide or small compounds; made in house
T1 sequence (O15530 50-359 Y288G/Q292A): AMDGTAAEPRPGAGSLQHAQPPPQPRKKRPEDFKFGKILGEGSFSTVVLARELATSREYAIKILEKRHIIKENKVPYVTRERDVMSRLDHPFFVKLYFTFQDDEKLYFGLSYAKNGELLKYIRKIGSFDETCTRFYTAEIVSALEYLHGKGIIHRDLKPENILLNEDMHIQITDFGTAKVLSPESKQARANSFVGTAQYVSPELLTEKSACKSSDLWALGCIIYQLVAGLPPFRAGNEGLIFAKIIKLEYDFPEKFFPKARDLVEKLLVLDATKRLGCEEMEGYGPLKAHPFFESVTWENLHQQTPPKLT
Test: amide hydrogen/deuterium (1H/2H) exchange and mass spectrometry
Conditions: PS08 (=PS-T-8) 250 μM, after 45 minutes

O=C(O)/C=C(/CCc1ccc(Br)cc1F)c1ccccc1 [PS-T8, (Z)-5-(4-Bromo-2-fluorophenyl)-3-phenylpent-2-enoic acid]
global 1H/2H exchange protection: 10-12 ^2H/PDK1 molecule
